Record: PubChem BioAssay AID1508597 (Cure First, 2020)
Shown is a random part of the about 2,100 reagents, under one of the conditions tested. 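Calls flag viability under 80% in either arm, not effects specific to rucaparib; the reference for percent is not stated.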 Some reagents were tested in more than one well and are listed for each. No sequences are given here. Not given: the 100% reference.

Purpose: 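Knock-downs altering ovarian cancer cell survival with or without PARP inhibitor rucaparib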 (primary screen)
Cells: human ovarian carcinoma lines grown from tumours: OCI-P5x (papillary serous) and OCI-C5x (clear cell)
Reagent: siRNA pool against human genes, 1.25 pmol siRNA per well
Duration: 72 h or 96 h, depending on the cell culture
Conditions: rucaparib 20 µM (about IC30) or vehicle, present until read-out
Rucaparib or vehicle: Vehicle
Cell line: OCI-P5x (serous)
Measurement: 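Luminescent ATP-based viability assay read 72 or 96 h after transfection, depending on culture, given as normalised percent viability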
Direction: viability, normalised: higher = more viable cells remaining
Active means: 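a well counts as a hit if its normalised viability is under 80 percent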
Calls: active = viability under 80%; inactive = viability 80% or more

ZDHHC1 (GeneID 29800), technical replicate 1 gave viability, normalised (%) = 65.4; active.
ZDHHC1 (GeneID 29800), technical replicate 2 scored viability, normalised (%) = 66.7; active.
ZDHHC1 (GeneID 29800), technical replicate 3 scored viability, normalised (%) = 50.8; active.
With RIF1 (GeneID 55183), technical replicate 1, the entry reads viability, normalised (%) = 71.5; active.
With RIF1 (GeneID 55183), technical replicate 2, the entry reads viability, normalised (%) = 78.2; active.
With RIF1 (GeneID 55183), technical replicate 3, the entry reads viability, normalised (%) = 74.1; active.
With TP53 (GeneID 7157), technical replicate 1, the values are viability, normalised (%) = 57.9; active.
With TP53 (GeneID 7157), technical replicate 1, the entry reads viability, normalised (%) = 74.2; active.
For TP53 (GeneID 7157), technical replicate 1, the values are viability, normalised (%) = 94.5; inactive.
TP53 (GeneID 7157), technical replicate 2 showed viability, normalised (%) = 97.5; inactive.
For TP53 (GeneID 7157), technical replicate 2, the values are viability, normalised (%) = 74.6; active.
TP53 (GeneID 7157), technical replicate 2 gave viability, normalised (%) = 86.4; inactive.
With TP53 (GeneID 7157), technical replicate 3, the values are viability, normalised (%) = 69.3; active.
TP53 (GeneID 7157), technical replicate 3 gave viability, normalised (%) = 76.6; active.
TP53 (GeneID 7157), technical replicate 3 scored viability, normalised (%) = 97.4; inactive.
For ELANE (GeneID 1991), technical replicate 1, the values are viability, normalised (%) = 63.3; active.
For ELANE (GeneID 1991), technical replicate 2, the values are viability, normalised (%) = 75; active.
ELANE (GeneID 1991), technical replicate 3 showed viability, normalised (%) = 54.6; active.
CNOT12 (GeneID 85456), technical replicate 1 showed viability, normalised (%) = 34.2; active.
CNOT12 (GeneID 85456), technical replicate 2 scored viability, normalised (%) = 47.4; active.
CNOT12 (GeneID 85456), technical replicate 3 scored viability, normalised (%) = 51.3; active.
